Measurements from patent US20230025756A1.
These are yes or no findings as the source states them, for the method shown. Some results given as binding are weak or reduced against the parent protein; the word gives no strength.

Protein sequences, listed by entry. Tags and fused reporters are not part of them. Lines headed by an entry give the natural chain unless they say otherwise; changes in a name come on top. Residues count along the entry.
UniProt P20023, residues 21-1033: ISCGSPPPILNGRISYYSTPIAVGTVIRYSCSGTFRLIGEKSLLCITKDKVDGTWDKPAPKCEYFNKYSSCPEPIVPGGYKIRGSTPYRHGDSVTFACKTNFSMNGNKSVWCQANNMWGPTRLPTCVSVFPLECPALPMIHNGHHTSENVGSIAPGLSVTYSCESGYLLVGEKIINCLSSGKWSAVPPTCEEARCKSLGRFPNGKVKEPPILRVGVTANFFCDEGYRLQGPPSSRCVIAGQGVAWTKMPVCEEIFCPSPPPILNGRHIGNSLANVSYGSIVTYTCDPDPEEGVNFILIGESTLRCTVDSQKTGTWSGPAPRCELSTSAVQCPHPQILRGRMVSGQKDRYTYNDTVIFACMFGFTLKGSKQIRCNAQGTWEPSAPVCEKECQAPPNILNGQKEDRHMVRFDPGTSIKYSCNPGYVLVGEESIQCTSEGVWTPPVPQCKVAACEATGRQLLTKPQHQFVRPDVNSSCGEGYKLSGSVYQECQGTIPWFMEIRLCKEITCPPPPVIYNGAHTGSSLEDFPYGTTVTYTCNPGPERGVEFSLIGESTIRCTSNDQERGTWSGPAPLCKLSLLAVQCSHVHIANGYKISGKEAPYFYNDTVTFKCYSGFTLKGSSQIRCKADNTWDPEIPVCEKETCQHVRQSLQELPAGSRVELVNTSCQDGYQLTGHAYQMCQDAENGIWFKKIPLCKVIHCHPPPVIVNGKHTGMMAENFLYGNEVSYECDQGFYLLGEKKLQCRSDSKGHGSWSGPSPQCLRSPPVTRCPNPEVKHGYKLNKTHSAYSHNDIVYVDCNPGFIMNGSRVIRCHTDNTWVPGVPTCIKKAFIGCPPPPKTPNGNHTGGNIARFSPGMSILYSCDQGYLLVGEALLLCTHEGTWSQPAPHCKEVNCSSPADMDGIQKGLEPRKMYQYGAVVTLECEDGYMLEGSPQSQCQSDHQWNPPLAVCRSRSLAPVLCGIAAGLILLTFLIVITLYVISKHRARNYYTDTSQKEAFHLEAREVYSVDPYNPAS
UniProt P17927, residues 42-2039: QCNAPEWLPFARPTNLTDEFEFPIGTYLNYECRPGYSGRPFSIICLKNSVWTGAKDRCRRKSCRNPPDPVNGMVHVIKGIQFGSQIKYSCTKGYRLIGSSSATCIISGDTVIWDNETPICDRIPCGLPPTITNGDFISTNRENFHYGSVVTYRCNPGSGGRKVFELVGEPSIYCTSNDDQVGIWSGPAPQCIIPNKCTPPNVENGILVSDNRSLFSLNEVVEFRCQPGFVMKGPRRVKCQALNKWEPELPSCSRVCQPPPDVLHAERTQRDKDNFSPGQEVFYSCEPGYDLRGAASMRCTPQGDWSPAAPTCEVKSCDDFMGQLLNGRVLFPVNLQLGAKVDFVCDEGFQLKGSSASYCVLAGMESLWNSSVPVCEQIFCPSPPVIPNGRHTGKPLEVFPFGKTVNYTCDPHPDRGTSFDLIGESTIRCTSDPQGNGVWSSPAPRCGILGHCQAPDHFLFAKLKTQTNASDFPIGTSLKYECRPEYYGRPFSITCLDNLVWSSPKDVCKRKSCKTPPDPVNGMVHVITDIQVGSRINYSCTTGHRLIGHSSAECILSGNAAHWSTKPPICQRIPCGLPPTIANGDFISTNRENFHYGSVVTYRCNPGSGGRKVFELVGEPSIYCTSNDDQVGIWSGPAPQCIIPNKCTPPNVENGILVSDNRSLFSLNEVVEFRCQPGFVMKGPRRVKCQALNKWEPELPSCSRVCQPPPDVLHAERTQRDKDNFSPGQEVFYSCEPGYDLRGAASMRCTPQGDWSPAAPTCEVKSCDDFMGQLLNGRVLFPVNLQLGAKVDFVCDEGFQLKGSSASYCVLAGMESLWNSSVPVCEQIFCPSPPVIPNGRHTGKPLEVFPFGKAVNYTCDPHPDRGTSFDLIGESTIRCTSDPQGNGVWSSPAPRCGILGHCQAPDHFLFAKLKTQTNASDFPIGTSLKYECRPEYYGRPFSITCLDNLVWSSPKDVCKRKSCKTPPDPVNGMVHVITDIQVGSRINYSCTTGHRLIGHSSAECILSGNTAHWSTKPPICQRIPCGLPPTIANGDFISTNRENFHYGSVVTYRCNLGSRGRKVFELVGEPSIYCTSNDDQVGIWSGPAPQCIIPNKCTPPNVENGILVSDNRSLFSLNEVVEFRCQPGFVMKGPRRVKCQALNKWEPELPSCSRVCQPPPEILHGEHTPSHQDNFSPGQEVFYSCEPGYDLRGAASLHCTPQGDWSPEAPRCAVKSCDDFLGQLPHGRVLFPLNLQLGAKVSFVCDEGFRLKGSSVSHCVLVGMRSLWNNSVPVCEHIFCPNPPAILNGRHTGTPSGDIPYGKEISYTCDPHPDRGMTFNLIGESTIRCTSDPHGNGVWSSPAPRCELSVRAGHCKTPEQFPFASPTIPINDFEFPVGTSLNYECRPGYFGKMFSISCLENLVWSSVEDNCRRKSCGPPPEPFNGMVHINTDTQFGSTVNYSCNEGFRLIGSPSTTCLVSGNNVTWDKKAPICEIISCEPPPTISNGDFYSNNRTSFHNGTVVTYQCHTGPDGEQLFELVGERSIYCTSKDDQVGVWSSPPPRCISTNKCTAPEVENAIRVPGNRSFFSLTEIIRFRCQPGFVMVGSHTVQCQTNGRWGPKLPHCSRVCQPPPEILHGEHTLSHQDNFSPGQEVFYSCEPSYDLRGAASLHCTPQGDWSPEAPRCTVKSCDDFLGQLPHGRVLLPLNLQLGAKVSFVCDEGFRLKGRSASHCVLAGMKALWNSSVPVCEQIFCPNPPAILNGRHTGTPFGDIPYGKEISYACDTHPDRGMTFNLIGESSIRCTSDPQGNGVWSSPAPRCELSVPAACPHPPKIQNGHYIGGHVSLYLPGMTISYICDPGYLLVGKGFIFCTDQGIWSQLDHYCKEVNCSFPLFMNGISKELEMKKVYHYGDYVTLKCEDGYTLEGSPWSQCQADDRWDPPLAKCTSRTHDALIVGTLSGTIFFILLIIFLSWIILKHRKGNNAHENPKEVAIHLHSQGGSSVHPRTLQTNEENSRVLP
UniProt P01024: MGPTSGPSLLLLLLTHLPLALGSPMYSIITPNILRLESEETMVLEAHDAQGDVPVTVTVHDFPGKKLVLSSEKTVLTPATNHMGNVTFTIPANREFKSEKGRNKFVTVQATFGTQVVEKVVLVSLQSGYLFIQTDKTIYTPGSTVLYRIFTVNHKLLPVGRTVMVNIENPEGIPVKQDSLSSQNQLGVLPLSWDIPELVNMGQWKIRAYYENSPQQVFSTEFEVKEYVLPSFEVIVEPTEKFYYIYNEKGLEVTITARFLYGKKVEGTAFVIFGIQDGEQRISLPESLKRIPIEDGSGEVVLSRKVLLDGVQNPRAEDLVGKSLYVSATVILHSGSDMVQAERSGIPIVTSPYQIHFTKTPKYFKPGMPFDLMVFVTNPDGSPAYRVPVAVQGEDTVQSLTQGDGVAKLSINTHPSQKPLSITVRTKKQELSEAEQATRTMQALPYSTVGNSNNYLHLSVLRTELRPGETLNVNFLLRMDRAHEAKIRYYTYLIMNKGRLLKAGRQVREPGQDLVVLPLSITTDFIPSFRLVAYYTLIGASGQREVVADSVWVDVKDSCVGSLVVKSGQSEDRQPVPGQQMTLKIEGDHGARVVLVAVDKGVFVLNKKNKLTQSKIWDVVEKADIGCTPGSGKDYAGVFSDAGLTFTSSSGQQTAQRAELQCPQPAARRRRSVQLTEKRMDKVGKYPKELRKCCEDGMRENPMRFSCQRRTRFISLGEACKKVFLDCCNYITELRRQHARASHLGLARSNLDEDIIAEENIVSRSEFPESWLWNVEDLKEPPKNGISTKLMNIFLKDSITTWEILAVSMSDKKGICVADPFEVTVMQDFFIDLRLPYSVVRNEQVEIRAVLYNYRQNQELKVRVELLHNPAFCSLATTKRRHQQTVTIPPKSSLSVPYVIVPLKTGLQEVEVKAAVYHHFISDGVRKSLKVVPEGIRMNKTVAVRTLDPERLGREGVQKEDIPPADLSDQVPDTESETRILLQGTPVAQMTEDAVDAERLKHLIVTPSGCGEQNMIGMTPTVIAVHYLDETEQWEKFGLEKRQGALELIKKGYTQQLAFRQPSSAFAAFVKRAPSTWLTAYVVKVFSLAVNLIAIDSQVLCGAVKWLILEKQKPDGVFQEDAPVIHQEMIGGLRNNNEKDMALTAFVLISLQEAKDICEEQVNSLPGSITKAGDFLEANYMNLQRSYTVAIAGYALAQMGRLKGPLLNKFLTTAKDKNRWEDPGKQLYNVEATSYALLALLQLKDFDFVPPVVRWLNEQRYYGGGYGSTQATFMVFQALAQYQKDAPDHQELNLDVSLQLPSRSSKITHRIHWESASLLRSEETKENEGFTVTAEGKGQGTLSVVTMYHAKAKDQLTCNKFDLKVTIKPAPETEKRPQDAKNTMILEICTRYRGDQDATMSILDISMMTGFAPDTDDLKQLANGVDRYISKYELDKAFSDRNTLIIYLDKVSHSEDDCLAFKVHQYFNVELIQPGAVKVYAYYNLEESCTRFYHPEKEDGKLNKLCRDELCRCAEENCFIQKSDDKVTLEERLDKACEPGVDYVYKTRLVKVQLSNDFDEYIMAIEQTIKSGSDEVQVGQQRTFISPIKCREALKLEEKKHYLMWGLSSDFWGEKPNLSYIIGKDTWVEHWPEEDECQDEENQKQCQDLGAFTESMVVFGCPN

How the values were obtained:
[1] = target: complement receptor 2 (CR2/CD21) on human B cells (human) (UniProt P20023); test: flow cytometry on purified human B cells
[2] = target: complement receptor 1 (CR1/CD35) on human B cells (human) (UniProt P17927); test: flow cytometry on human B cells
[3] = target: complement receptor 1 (CR1/CD35) on human B cells (human) (UniProt P17927); test: flow cytometry on purified human B cells

Row | binding [1] | binding [2] | binding [3] | Substance
1 | binds |  |  | C3dg tetramers (recombinant biotinylated C3dg with PE-labeled streptavidin) (from UniProt P01024 955-1303; P22629 37-163) (ligand)
2 |  | binds | binds | biot-C3b tetramers (biotinylated human C3b bound to streptavidin) (from UniProt P01024 23-667; P01024 749-1663; P22629 37-163) (ligand)
